Measurements from PubChem BioAssay AID540276 (National Center for Advancing Translational Sciences (NCATS), 2011).
The campaign covered roughly 300,000 compounds. About 5,400 (1.8%) were called active. The inconclusive results got no clear call from the source; some entries with a clear call stand among them for comparison. Calls come from the whole dose curve; tested in HEK293 cells. Potencies beside an inconclusive call are fits to weak or partial responses and may not hold up.

assay: qHTS for inhibitors of binding or entry into cells for Marburg Virus; conditions: Marburg virus pseudotyped entry inhibition, cell reporter; activity change, negative = inhibition: at 37.8 µM (top of the series) unless noted
% is set by controls: 0 for no effect and ±100 for the full control effect; potency is the fitted concentration of half-maximal effect.

| Structure (SMILES) | Potency | activity change, negative = inhibition |
| --- | --- | --- |
| CCOC(=O)C1(Cc2ccccc2)CCN(C2Cc3ccccc3C2)CC1 | inconclusive: 7.94 µM [inhibitor, partial curve, poor fit] | – |
| Cc1ccccc1Nc1nc(N)nc(CCl)n1 | inconclusive: 35.5 µM [inhibitor, single point] | – |
| O=C(C1CC(=O)N(C2CCCC2)C1)N1CCC(Cc2ccccc2)CC1 (stereo unspecified) | – | inactive: -1.3% |
| CCCCOc1ccc(S(=O)(=O)NCc2csc(C)n2)cc1 | – | inactive: -27.1% |
| CC(C)COc1ccc(C(=O)Nc2cc3nn(-c4ccccc4)nc3cc2Cl)cc1 | – | inactive: 3.52% [at 46.1 µM] |
| CCOC(=O)CSc1n[nH]c(=S)s1 | – | inactive: 19.3% [at 46.1 µM] |
| O=C(CSc1nc2scc(-c3ccco3)c2c(=O)n1-c1ccccc1)N1CCOCC1 | inconclusive: 14.6 µM [inhibitor, partial curve, poor fit] | – |
| CN(C)C(=O)Oc1ccc2ccccc2c1Cl | inconclusive: 29.1 µM [inhibitor, single point] | – |
| CCOc1ccc(N2C(=O)Nc3ccc(Br)cc3C2(O)C(=O)NCCCN(C)C)cc1 (stereo unspecified) | inconclusive: 1.58 µM [inhibitor, partial curve, poor fit] | – |
| Cc1ccc(C=Nc2ccccc2C(N)=O)s1 | inconclusive: 2.82 µM [inhibitor, single point] | – |
| Cc1ccc(-c2nc(CS(=O)(=O)CC(=O)N3CCc4ccccc4C3)c(C)o2)cc1 | – | inactive: -2.7% |
| CC(=O)Nc1cccc(C(=O)/C=C/c2ccc(C)cc2)c1 | inconclusive: 35.5 µM [inhibitor, single point] | – |
| COc1ccccc1C(=O)Nn1c(C2CCC2)nc2ccccc2c1=O | inconclusive: 1.3 µM [activator, partial curve, poor fit] | – |
| CCOC(=O)c1[nH]c2c(c1Cc1ccccc1C)C(=O)CC(c1cc(OC)ccc1OC)C2 (stereo unspecified) | inconclusive: 1.26 µM [inhibitor, partial curve, poor fit] | – |
| CC1=C(C)Cc2c(nnn2-c2nc(C)nc3sc4c(c23)CCCC4)C1 | – | inactive: -5.14% |
| O=C(CSc1nn(-c2ccc(F)cc2)c(=S)s1)N1CCN(C(=O)c2ccco2)CC1 | – | inactive: -14.3% |
| OC(Cc1nc2ccccc2[nH]1)c1ccccc1Cl (stereo unspecified) | – | inactive: -7.47% |
| O=C1CC(c2cccs2)c2ccc3ccccc3c2N1 (stereo unspecified) | inconclusive: 14.1 µM [inhibitor, partial curve, poor fit] | – |
| CC(C)=C1C2CCC1C1C(=O)N(c3nccs3)C(=O)C21 (stereo unspecified) | inconclusive: 1.26 µM [activator, partial curve, poor fit] | – |
| CCN(CC)CCCN=Cc1c(-c2ccccc2)[nH]n(-c2nc3ccccc3s2)c1=O | – | inactive: -4.37% [at 46.1 µM] |
| O=C(Nc1ccccc1Cl)C(Cl)C(=O)c1ccccc1 (stereo unspecified) | – | inactive: 8.39% [at 46.1 µM] |

Copied from the list:
activity change, negative = inhibition with CC(C)COc1ccc(C(=O)Nc2cc3nn(-c4ccccc4)nc3cc2Cl)cc1 is entered as inactive: 3.52% [at 46.1 µM]
Potency with CCOC(=O)C1(Cc2ccccc2)CCN(C2Cc3ccccc3C2)CC1 is entered as inconclusive: 7.94 µM [inhibitor, partial curve, poor fit]
